{"source": "patent US20070082942A1", "about": "“Prevention of hiv-1 infection by inhibition of rho-mediated reorganization and/or content alteration of cell membrane raft” (priority 2003, published 2007)", "test_system": "HIV-1 BaL", "test": "Ex vivo infection of PBMC from pravastatin-treated donors", "assay_type": "cell-based", "details": "pravastatin 40 mg/day, 14 days, oral; BaL at 1 and 10 ng p24/10^6 cells; FIG. 5B", "note": "At least one structure is not confirmed: it was looked up by name or label, or the drawing left a doubt.", "data": [{"smiles": "CC[C@H](C)C(=O)O[C@H]1C[C@H](O)C=C2C=C[C@H](C)[C@H](CC[C@@H](O)C[C@@H](O)CC(=O)O)[C@H]21", "note": "[pravastatin, [1S-[1alpha(beta*, delta*)2alpha, 6alpha, 8beta(R*),8aalpha]]-1,2,6,7,8,8a-hexahydro-beta, delta,6-trihydroxy-2-methyl-8-(2-methyl-1-oxobutoxy)-1-naphthalene-heptanoic acid]", "values": [{"measurement": "Infectivity of PBMC after vs before treatment (p24)", "result": "drastically reduced"}]}]}
